Measured values from PMC11535364.
Results are given in words; binding and its absence hold for the method and conditions named. Binding seen in cells or lysates may run through a third protein. Some binding calls cover weakened binding; strength is not graded here.

Chains of the proteins cited; added tags and fusions are not shown.
UniProt Q9DBL9: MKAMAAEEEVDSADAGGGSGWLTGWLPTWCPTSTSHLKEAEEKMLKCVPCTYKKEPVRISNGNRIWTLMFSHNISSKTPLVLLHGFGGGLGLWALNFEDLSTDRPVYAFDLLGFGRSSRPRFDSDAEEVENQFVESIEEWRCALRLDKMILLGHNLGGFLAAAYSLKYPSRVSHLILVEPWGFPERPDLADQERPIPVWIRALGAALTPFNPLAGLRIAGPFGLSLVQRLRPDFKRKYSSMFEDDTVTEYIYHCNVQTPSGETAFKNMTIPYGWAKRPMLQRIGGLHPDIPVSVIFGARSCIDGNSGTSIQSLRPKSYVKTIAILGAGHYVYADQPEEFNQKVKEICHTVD

Molecular target: T1, Perilipin 1 (PLIN1) (mouse (endogenous in osteoblasts from mouse bone marrow MSCs)) (UniProt Q8CGN5)
T1 sequence: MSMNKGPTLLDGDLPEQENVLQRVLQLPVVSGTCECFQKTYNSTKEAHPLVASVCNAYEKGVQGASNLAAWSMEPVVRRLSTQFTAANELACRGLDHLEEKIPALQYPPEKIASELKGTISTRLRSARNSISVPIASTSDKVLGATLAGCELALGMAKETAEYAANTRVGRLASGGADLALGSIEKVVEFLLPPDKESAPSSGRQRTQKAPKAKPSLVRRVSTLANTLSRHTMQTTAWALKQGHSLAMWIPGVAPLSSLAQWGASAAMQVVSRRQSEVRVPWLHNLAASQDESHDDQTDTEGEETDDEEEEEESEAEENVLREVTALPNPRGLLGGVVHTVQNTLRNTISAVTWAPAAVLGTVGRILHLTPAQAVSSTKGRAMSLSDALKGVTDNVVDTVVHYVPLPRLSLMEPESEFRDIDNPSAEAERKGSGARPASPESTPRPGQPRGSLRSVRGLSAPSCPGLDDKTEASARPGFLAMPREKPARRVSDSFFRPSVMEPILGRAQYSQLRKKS
Assay: co-IP; cells lysed in RIPA buffer (50 mM Tris-HCl pH 7.4, 150 mM NaCl, 1% NP-40, 0.5% sodium deoxycholate, 0.1% SDS, 1 mM EDTA); protein A/G agarose beads with anti-PLIN1 or anti-ABHD5 antibody, 4°C; nonspecific IgG as control; Western blot for PLIN1, ABHD5 or ATGL; for ATGL, osteoblasts with and without lipid droplet treatment

ABHD5 (from UniProt Q9DBL9 1-351)
binding: binds
